Results are given in words; binding and its absence hold for the method and conditions named. Binding seen in cells or lysates may run through a third protein. Some binding calls cover weakened binding; strength is not graded here. For part of these data: Where a sequence is shown, tags or fusion partners need not be part of it.
T1: Cdo (cell adhesion molecule-related downregulated by oncogene), full length (rat) (UniProt O35158)
T1 sequence: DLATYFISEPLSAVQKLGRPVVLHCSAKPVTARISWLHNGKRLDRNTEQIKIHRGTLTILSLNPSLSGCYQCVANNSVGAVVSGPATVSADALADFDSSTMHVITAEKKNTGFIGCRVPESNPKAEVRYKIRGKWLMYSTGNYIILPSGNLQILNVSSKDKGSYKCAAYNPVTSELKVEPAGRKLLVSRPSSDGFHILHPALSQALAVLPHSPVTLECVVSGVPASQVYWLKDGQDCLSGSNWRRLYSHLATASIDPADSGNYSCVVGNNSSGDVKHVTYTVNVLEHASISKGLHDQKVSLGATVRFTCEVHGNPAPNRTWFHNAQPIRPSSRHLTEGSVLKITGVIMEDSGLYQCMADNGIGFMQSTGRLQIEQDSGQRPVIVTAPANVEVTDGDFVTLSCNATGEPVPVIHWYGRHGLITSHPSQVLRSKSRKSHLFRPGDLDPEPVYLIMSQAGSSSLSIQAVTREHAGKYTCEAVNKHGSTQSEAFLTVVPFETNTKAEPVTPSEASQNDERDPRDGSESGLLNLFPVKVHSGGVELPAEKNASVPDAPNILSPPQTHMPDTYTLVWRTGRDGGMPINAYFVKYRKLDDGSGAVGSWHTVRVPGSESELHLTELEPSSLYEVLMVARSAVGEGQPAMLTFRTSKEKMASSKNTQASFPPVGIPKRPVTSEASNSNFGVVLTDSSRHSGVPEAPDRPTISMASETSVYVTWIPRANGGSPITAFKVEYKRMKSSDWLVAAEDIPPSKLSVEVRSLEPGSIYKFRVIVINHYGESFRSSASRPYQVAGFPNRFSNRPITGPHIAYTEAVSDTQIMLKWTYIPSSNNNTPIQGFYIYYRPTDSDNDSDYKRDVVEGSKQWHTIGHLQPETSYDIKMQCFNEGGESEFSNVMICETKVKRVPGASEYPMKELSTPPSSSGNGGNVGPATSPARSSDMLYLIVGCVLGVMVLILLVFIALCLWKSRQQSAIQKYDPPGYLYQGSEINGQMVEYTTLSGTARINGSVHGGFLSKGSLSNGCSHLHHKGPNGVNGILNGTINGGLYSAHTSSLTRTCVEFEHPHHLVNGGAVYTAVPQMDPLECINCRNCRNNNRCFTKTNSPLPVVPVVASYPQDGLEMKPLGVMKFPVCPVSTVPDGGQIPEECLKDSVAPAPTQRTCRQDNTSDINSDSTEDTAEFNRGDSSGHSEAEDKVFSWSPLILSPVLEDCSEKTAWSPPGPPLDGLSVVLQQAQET

Amino acid sequences for entries named in this document (tags omitted). A change or cut given only in a name is not applied to a line headed by its entry.
UniProt Q16513: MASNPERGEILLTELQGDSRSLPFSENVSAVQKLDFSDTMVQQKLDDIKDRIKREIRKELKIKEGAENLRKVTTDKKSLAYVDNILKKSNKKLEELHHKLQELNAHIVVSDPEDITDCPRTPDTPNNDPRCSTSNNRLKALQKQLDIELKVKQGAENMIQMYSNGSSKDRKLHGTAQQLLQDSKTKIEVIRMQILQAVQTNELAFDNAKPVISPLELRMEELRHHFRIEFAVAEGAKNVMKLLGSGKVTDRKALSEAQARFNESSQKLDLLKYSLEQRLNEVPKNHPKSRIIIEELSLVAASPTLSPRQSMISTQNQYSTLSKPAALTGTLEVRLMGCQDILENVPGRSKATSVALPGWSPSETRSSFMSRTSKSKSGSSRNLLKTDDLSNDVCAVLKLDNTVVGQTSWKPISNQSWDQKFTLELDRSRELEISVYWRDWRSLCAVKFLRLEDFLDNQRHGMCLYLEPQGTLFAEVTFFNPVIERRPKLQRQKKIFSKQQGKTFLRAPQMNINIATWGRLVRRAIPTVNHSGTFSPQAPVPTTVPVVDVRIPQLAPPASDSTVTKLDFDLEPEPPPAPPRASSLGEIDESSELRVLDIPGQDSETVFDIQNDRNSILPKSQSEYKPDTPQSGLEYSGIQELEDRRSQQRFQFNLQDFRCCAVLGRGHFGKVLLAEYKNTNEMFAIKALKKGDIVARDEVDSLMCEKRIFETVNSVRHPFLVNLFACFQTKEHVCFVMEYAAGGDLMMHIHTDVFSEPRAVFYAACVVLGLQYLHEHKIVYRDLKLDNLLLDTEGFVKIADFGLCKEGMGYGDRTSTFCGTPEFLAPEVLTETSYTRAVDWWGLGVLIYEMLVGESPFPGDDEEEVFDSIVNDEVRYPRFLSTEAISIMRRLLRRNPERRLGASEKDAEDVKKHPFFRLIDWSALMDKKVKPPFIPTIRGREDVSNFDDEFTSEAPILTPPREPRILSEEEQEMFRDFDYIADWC

T2: APPL1, full-length construct with no tag named (UniProt Q9UKG1)
T2 sequence: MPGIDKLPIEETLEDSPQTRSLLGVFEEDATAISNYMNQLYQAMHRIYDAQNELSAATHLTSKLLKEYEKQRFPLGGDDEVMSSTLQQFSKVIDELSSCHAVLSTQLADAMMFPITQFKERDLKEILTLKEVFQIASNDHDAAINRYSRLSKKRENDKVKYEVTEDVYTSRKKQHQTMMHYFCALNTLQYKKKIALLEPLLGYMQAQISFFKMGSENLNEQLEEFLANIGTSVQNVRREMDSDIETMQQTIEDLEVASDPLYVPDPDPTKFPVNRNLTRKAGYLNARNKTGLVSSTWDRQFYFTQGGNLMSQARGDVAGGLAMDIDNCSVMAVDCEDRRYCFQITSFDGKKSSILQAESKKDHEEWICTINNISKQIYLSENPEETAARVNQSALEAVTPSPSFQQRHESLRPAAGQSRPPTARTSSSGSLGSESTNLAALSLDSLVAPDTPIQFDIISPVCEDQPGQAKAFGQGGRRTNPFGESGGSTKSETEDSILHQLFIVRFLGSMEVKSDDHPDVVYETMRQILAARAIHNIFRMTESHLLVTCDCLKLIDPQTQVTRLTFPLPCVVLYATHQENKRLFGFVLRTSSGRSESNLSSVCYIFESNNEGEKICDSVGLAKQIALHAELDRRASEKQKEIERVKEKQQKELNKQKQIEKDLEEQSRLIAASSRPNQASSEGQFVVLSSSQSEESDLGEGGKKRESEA

B1: HA-tagged full-length APPL1 (protein, UniProt Q9UKG1 1-709)
chain: T2 sequence
B2: HA-APPL1 AA1-499 (domain or fragment, UniProt Q9UKG1 1-499)
chain: MPGIDKLPIEETLEDSPQTRSLLGVFEEDATAISNYMNQLYQAMHRIYDAQNELSAATHLTSKLLKEYEKQRFPLGGDDEVMSSTLQQFSKVIDELSSCHAVLSTQLADAMMFPITQFKERDLKEILTLKEVFQIASNDHDAAINRYSRLSKKRENDKVKYEVTEDVYTSRKKQHQTMMHYFCALNTLQYKKKIALLEPLLGYMQAQISFFKMGSENLNEQLEEFLANIGTSVQNVRREMDSDIETMQQTIEDLEVASDPLYVPDPDPTKFPVNRNLTRKAGYLNARNKTGLVSSTWDRQFYFTQGGNLMSQARGDVAGGLAMDIDNCSVMAVDCEDRRYCFQITSFDGKKSSILQAESKKDHEEWICTINNISKQIYLSENPEETAARVNQSALEAVTPSPSFQQRHESLRPAAGQSRPPTARTSSSGSLGSESTNLAALSLDSLVAPDTPIQFDIISPVCEDQPGQAKAFGQGGRRTNPFGESGGSTKSETEDSILH
B3: HA-APPL1 AA265-709 (domain or fragment, UniProt Q9UKG1 265-709)
chain: DPDPTKFPVNRNLTRKAGYLNARNKTGLVSSTWDRQFYFTQGGNLMSQARGDVAGGLAMDIDNCSVMAVDCEDRRYCFQITSFDGKKSSILQAESKKDHEEWICTINNISKQIYLSENPEETAARVNQSALEAVTPSPSFQQRHESLRPAAGQSRPPTARTSSSGSLGSESTNLAALSLDSLVAPDTPIQFDIISPVCEDQPGQAKAFGQGGRRTNPFGESGGSTKSETEDSILHQLFIVRFLGSMEVKSDDHPDVVYETMRQILAARAIHNIFRMTESHLLVTCDCLKLIDPQTQVTRLTFPLPCVVLYATHQENKRLFGFVLRTSSGRSESNLSSVCYIFESNNEGEKICDSVGLAKQIALHAELDRRASEKQKEIERVKEKQQKELNKQKQIEKDLEEQSRLIAASSRPNQASSEGQFVVLSSSQSEESDLGEGGKKRESEA
B4: HA-APPL1/486-709 (domain or fragment, UniProt Q9UKG1 486-709)
chain: GGSTKSETEDSILHQLFIVRFLGSMEVKSDDHPDVVYETMRQILAARAIHNIFRMTESHLLVTCDCLKLIDPQTQVTRLTFPLPCVVLYATHQENKRLFGFVLRTSSGRSESNLSSVCYIFESNNEGEKICDSVGLAKQIALHAELDRRASEKQKEIERVKEKQQKELNKQKQIEKDLEEQSRLIAASSRPNQASSEGQFVVLSSSQSEESDLGEGGKKRESEA
B5: CdoΔ986-1048 (receptor, UniProt O35158)
chain: DLATYFISEPLSAVQKLGRPVVLHCSAKPVTARISWLHNGKRLDRNTEQIKIHRGTLTILSLNPSLSGCYQCVANNSVGAVVSGPATVSADALADFDSSTMHVITAEKKNTGFIGCRVPESNPKAEVRYKIRGKWLMYSTGNYIILPSGNLQILNVSSKDKGSYKCAAYNPVTSELKVEPAGRKLLVSRPSSDGFHILHPALSQALAVLPHSPVTLECVVSGVPASQVYWLKDGQDCLSGSNWRRLYSHLATASIDPADSGNYSCVVGNNSSGDVKHVTYTVNVLEHASISKGLHDQKVSLGATVRFTCEVHGNPAPNRTWFHNAQPIRPSSRHLTEGSVLKITGVIMEDSGLYQCMADNGIGFMQSTGRLQIEQDSGQRPVIVTAPANVEVTDGDFVTLSCNATGEPVPVIHWYGRHGLITSHPSQVLRSKSRKSHLFRPGDLDPEPVYLIMSQAGSSSLSIQAVTREHAGKYTCEAVNKHGSTQSEAFLTVVPFETNTKAEPVTPSEASQNDERDPRDGSESGLLNLFPVKVHSGGVELPAEKNASVPDAPNILSPPQTHMPDTYTLVWRTGRDGGMPINAYFVKYRKLDDGSGAVGSWHTVRVPGSESELHLTELEPSSLYEVLMVARSAVGEGQPAMLTFRTSKEKMASSKNTQASFPPVGIPKRPVTSEASNSNFGVVLTDSSRHSGVPEAPDRPTISMASETSVYVTWIPRANGGSPITAFKVEYKRMKSSDWLVAAEDIPPSKLSVEVRSLEPGSIYKFRVIVINHYGESFRSSASRPYQVAGFPNRFSNRPITGPHIAYTEAVSDTQIMLKWTYIPSSNNNTPIQGFYIYYRPTDSDNDSDYKRDVVEGSKQWHTIGHLQPETSYDIKMQCFNEGGESEFSNVMICETKVKRVPGASEYPMKELSTPPSSSGNGGNVGPATSPARSSDMLYLIVGCVLGVMVLILLVFIALCLKGPNGVNGILNGTINGGLYSAHTSSLTRTCVEFEHPHHLVNGGAVYTAVPQMDPLECINCRNCRNNNRCFTKTNSPLPVVPVVASYPQDGLEMKPLGVMKFPVCPVSTVPDGGQIPEECLKDSVAPAPTQRTCRQDNTSDINSDSTEDTAEFNRGDSSGHSEAEDKVFSWSPLILSPVLEDCSEKTAWSPPGPPLDGLSVVLQQAQET
B6: HA-APPL1/1-273 (domain or fragment, UniProt Q9UKG1 1-273)
chain: MPGIDKLPIEETLEDSPQTRSLLGVFEEDATAISNYMNQLYQAMHRIYDAQNELSAATHLTSKLLKEYEKQRFPLGGDDEVMSSTLQQFSKVIDELSSCHAVLSTQLADAMMFPITQFKERDLKEILTLKEVFQIASNDHDAAINRYSRLSKKRENDKVKYEVTEDVYTSRKKQHQTMMHYFCALNTLQYKKKIALLEPLLGYMQAQISFFKMGSENLNEQLEEFLANIGTSVQNVRREMDSDIETMQQTIEDLEVASDPLYVPDPDPTKFPV

Experiments:
[1] = target: T1, Cdo (cell adhesion molecule-related downregulated by oncogene), full length (rat); assay: co-IP; 293T cells transiently co-transfected; lysates immunoprecipitated with an antibody to Cdo, blotted for PKN2 or GST (Figures 2a, 2g)
[2] = target: T2, APPL1, full-length construct with no tag named; assay: co-IP; 293T cells transiently co-transfected with APPL1 and GST-tagged PKN2 constructs; lysates immunoprecipitated with APPL1 antibody, blotted for GST (Figure 5a)
[3] = target: GST-tagged full-length PKN2 (AA1-984) (human) (UniProt Q16513); assay: co-IP; 293T cells transiently co-transfected; lysates immunoprecipitated with PKN2 antibodies, blotted for Cdo (Figure 2e) or HA (Figure 5b)
[4] = target: PKN2 (protein kinase C-related kinase 2), expression vector with no tag named (human) (UniProt Q16513); assay: as above

| Molecule | binding [1] | binding [2] | binding [3] | other results |
| --- | --- | --- | --- | --- |
| GST-PKN2 AA900-984 (from UniProt Q16513 900-984) (domain or fragment) | binds |  |  |  |
| GST-PKN2/839-900 (from UniProt Q16513 839-900) (domain or fragment) |  | binds |  |  |
| GST-tagged full-length PKN2 (AA1-984) (from UniProt Q16513 1-984) (enzyme) | binds | binds |  |  |
| PKN2 (protein kinase C-related kinase 2), expression vector with no tag named (from UniProt Q16513 1-984) (enzyme) | binds |  |  |  |
| GST-PKN2/573-984 (from UniProt Q16513 573-984) (domain or fragment) | binds | binds weakly |  |  |
| GST-PKN2/1-507 (from UniProt Q16513 1-507) (domain or fragment) | no binding | no binding |  |  |
| B1 |  |  | binds |  |
| B2 |  |  | binds |  |
| B3 |  |  | binds |  |
| B4 |  |  | binds weakly |  |
| B5 |  |  |  | binding [4]: no binding |
| B6 |  |  | no binding |  |

— PMC5133968
